Results are given in words; binding and its absence hold for the method and conditions named. Some entries that bind do so weakly or less than the wild type.
Legend:
[1] = target: hemagglutinin of H1N1 A/Puerto Rico/8/1934 (influenza virus H1N1 A/Puerto Rico/8/1934) (UniProt P03452); assay: Western blot; rHA
[2] = target: hemagglutinin of H1N1 A/Puerto Rico/8/1934 (influenza virus H1N1 A/Puerto Rico/8/1934) (UniProt P03452); assay: Western blot; virus, HEK293 cells
[3] = target: hemagglutinin of H1N1 A/Wilson Smith/33 (influenza virus H1N1 A/Wilson Smith/33) (UniProt P03454); assay: Western blot; virus, HEK293 cells
[4] = target: hemagglutinin of H8N4 A/Turkey/Ontario/6118/68 (influenza virus H8N4 A/Turkey/Ontario/6118/68) (UniProt P03456); assay: Western blot; virus, eggs
[5] = target: hemagglutinin of H1N1 A/Puerto Rico/8/1934 (influenza virus H1N1 A/Puerto Rico/8/1934) (UniProt P03452); assay: Western blot; virus, eggs
[6] = target: hemagglutinin of H13N6 A/Gull/Maryland/704/77 (influenza virus H13N6 A/Gull/Maryland/704/77) (UniProt P13103); assay: Western blot; virus, eggs
[7] = target: hemagglutinin of H9N2 A/Turkey/Wisconsin/1/66 (influenza virus H9N2 A/Turkey/Wisconsin/1/66) (UniProt P03457); assay: Western blot; virus, eggs
[8] = target: hemagglutinin of H1N1 A/Puerto Rico/8/1934 (influenza virus H1N1 A/Puerto Rico/8/1934) (UniProt P03452); assay: Western blot; virus, MDCK cells
[9] = target: hemagglutinin of H12N5 A/Duck/Alberta/60/76 (influenza virus H12N5 A/Duck/Alberta/60/76) (UniProt P03446); assay: Western blot; virus, MDCK cells
[10] = target: hemagglutinin of H1N1 A/Puerto Rico/8/1934 (influenza virus H1N1 A/Puerto Rico/8/1934) (UniProt P03452); assay: Western blot; rHA, insect cells
[11] = target: hemagglutinin of H1N1 A/Puerto Rico/8/1934 (influenza virus H1N1 A/Puerto Rico/8/1934) (UniProt P03452); assay: dot blot, 4M urea

Protein sequences, listed by entry. Tags and fused reporters are not part of them. Lines headed by an entry give the natural chain unless they say otherwise; changes in a name come on top. Residues count along the entry.
UniProt P03452, residues 18-528: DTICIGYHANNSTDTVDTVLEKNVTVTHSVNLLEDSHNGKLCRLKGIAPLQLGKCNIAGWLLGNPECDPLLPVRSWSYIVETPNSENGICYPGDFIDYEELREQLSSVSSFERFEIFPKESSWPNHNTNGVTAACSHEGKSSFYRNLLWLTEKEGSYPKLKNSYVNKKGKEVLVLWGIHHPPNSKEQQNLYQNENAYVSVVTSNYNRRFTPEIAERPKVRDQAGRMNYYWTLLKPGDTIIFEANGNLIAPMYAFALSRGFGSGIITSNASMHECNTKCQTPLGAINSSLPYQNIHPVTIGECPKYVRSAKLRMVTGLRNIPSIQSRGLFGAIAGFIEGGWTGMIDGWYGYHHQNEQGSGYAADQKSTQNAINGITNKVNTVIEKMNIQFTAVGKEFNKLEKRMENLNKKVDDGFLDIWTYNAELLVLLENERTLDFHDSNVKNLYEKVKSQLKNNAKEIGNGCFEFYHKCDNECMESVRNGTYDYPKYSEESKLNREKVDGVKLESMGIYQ
UniProt P03454, residues 18-565: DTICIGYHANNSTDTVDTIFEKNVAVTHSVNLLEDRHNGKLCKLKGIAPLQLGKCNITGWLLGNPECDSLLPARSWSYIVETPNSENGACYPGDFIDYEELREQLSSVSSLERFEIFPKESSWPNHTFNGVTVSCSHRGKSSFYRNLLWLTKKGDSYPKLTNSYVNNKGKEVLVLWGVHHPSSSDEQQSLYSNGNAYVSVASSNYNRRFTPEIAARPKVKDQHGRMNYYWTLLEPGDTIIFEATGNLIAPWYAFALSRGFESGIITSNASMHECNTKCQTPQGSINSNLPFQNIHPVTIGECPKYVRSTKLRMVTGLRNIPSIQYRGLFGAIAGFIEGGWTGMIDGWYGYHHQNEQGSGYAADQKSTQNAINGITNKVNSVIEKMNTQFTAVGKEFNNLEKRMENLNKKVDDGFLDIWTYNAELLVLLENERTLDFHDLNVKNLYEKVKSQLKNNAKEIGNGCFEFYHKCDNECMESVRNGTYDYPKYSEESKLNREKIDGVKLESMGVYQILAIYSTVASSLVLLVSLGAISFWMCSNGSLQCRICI
UniProt P03456: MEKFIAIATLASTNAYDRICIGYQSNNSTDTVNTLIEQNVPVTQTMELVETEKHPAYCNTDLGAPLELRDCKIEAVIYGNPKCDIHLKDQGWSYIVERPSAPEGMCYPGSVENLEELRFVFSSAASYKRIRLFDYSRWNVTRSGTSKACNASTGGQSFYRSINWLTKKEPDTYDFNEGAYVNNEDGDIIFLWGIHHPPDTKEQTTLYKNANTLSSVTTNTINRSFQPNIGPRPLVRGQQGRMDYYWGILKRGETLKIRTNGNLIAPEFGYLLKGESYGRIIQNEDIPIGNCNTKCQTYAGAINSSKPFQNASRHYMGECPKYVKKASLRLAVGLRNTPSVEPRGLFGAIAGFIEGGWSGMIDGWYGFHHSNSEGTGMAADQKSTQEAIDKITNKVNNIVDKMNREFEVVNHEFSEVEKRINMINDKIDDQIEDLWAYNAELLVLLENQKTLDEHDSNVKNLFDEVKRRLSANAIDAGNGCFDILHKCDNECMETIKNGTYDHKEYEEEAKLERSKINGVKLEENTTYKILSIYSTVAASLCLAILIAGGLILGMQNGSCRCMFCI
UniProt P13103: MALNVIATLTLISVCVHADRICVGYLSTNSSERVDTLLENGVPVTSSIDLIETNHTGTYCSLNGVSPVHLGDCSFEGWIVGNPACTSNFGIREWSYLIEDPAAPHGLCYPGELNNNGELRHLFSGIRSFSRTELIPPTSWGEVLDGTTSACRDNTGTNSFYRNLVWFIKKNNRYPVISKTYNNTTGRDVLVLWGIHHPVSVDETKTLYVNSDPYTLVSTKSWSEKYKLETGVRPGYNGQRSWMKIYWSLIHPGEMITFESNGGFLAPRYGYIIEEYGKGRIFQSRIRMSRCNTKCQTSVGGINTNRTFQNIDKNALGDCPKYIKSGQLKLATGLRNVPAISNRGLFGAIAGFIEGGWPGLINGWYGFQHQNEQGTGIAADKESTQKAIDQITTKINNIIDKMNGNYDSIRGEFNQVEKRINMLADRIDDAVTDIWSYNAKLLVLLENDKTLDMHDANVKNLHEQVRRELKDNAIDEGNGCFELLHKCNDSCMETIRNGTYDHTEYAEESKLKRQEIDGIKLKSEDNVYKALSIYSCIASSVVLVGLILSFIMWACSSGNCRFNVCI
UniProt P03457: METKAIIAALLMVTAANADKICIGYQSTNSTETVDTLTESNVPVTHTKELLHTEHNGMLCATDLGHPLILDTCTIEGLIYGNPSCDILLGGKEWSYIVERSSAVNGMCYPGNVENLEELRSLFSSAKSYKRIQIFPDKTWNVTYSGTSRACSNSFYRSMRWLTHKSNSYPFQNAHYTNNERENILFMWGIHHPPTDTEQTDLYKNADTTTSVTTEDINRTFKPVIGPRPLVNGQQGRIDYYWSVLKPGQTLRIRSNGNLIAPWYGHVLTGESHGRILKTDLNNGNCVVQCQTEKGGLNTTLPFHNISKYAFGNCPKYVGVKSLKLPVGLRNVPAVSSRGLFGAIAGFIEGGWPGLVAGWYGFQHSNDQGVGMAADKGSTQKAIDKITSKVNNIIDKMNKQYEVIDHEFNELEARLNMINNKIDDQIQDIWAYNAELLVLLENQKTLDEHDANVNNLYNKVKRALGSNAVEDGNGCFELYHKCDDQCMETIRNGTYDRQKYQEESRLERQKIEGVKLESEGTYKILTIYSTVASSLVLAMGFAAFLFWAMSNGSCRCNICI
UniProt P03446: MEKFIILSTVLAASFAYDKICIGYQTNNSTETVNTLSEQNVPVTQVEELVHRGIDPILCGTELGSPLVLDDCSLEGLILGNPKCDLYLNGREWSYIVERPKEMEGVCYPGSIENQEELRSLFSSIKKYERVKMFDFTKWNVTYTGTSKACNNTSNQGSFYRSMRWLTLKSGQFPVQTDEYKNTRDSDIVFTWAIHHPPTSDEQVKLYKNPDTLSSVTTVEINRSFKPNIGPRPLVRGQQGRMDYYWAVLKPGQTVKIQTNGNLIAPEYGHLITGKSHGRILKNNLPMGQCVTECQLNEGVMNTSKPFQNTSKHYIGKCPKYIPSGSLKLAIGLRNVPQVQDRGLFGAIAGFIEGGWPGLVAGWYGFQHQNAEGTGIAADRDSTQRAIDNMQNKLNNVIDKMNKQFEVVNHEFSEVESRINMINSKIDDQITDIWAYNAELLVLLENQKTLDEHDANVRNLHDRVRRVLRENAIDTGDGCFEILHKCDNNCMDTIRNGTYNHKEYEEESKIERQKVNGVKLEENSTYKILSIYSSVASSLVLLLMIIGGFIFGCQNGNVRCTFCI

Measured: binding

B1: F211-11H12 (antibody, V domains shown)
VH: DVQLQESGPGLVKPSQSLSLTCSVTGYSITSDYYWNWIRQFPGNKLEWMAYIGYDGTKNYNPSLKNRISITRDTSKNQFFLKLNSVTTDDTATYYCTRDRANWDDYFDYWGQGTTLTVSS
VL: DIVMSQSPSSLAVSVGEKVTMSCKSSQSLLNSRNQKNHLAWYQQKPGQSPKLLIYWASTRESGVPDRFTGDGSGTDFTLTISSVKAEDLAVYYCQQYYTYRTFGGGTKLEIK
binds: [1] | [2] | [3] | [4] | [5] | [6] | [7] | [8] | [9] | [10] | [11]

Source: patent US20190352376A1
